Measurements from EP3925626A1, “LIPOPEPTIDE CONJUGATES AND THEIR SALTS, METHOD OF MANUFACTURE OF LIPOPEPTIDE CONJUGATES AND THEIR SALTS, PHARMACEUTICAL COMPOSITION COMPRISING A LIPOPEPTIDE CONJUGATE AND ITS SALTS FOR THE TREATMENT OF CHRONIC WOUNDS” (priority 2020, dated 2021).
At least one peptide structure holds a part that was inferred or is arguable (an end, a ring closure or a residue). Where a SMILES comes first, the peptide text is derived from it. [ ]: non-standard residue; d: D form. The star is where a group is joined. Hyp = O=C(O)[C@@H]1C[C@@H](O)CN1; Lauroyl = CCCCCCCCCCCC(=O)*

What was measured:
primary fibroblast cells = assay: In vitro wound healing (closure) assay with IBIDI culture inserts, fibroblast migration; assay type: cell-based, human; conditions: tested at 0.01 and 0.10 µg/mL
Experimental: In vitro wound healing (closure) assay using IBIDI culture inserts were performed according to literature. Briefly, cell suspension (1,5×10^4) was seeded in Culture-insert 2 well in 70µl of growth medium (DMEM) and cultured for 24 h (37°C, 5%CO2) to form a monolayer. After removal of the Culture-insert, the newly created cell-free gap (wound) was wahed with DMEM followed by PBS. Cell monolayer was also preincubated for 30 min in the presence of mitomycin C (8µg/mL), as a DNA replication and cell proliferation inhibitor. A fresh DMEM and the cells were treated with a pharmaceutical composition containing a lipopeptide conjugate or pharmaceutically acceptable salt and incubated for 24h (37°C, 5%CO2). The cultures in DMEM (K+) was incubated under the same conditions as described above. After overnight incubation, the media was removed, cells were rinsed with sterile PBS and then 1% paraformaldehyde (PFA) was added. After 20 minutes, the cells were washed with PBS and stained with 0.05% crystal violet solution. The stained cells were washed with PBS and then distilled water was added to each well. […] Cell migration was analyzed using Imaging Software NIS-Elements Basic Research. Alternatively, the migration rate was expressed as the percentage of area reduction (wound closure) compared to the control K. Data of at least independent experiments (n=3) were shown in Figure 4. […]

BALB/c mice = assay: In vivo full-thickness excision wound healing; parameters: species or system Mus musculus BALB/c mice
Experimental: 8-10 week-old female Mus musculus BALB/c mice (purchased from Tri-City Academic Laboratory Animal Centre-Research nad Services Centre) were used in the study. The experiments were carried out in Tri-City Academic Laboratory Animal Centre - Research and Services Centre according to the approved guidelines of Local Ethics Committee of Animal Experimentation in Bydgoszcz (permit No. 31/2018). Mice were housed under standard conditions, with ad libitum access to food pellets and tap water, and kept under control conditions (22±2°C, relative humidity 55±10%, 12/12 light/darck cycle).
In experiments, mice were divided into groups i.e. control groups (n=6) and experimental groups (n=6). The animals were anesthetized with 3÷5% isoflurane. […] The progress of the wound healing process was assessed according to the defined administration schedule at intervals (d0, d3, d7, d10, d14). […] Wound surfaces were each photographed with a Nikon Coolpix S5100 camera and calculated with the use of Image J. Wound healing (restoration of a full-layer skin) is interpreted as the percentage reduction of the original wound area over time. The process of reepithelization was also assessed, indicating the surface of new epithelium extending. […]

[1] = test system: human keratinocyte primary culture; assay: Keratinocyte proliferation in the wound closure setting; assay type: cell-based; conditions: relative to non-stimulated DMEM (K), mean±SD

`CCCCCCCCCCCC(=O)NCC(=O)N1C[C@H](O)C[C@H]1C(=O)N1C[C@H](O)C[C@H]1C(=O)N[C@@H](CCCCN)C(N)=O` [Lipopeptide conjugate 2, N^α-lauroyl-Gly-Hyp-Hyp-Lys-NH2] (Lauroyl-G[Hyp][Hyp]K-NH2) was tested, and the “Percentage wound area reduction observed at” value (primary fibroblast cells) was 10-fold increased concentrations, the “Masson's trichrome-stained skin section, epidermis compared to the normal skin” value (BALB/c mice; 18 days after injury, preparation 0.1% w/w) was “thickening of the epidermal layer” and the “Differences in wound size and coverage of the wound with a new epithelial layer” value (BALB/c mice; preparation 0.1% w/w daily d0÷d10 or 4.0% w/w at d0, d3, d7, d10, versus control) was “visible from Day 3”. The “Keratinocyte proliferation [n-times of control]” value ([1]; 0.01 µg/mL) was 1.33±0.22 n-times of control and the “Keratinocyte proliferation [n-times of control]” value ([1]; 0.10 µg/mL) was 1.42±0.26 n-times of control.
